{"source": "patent US20240309385", "key": {"[1]": {"system": "thrombin (coagulation factor II, in pooled plasma) (Homo sapiens)", "assay": "inhibition of the protein", "details": "2'-F modified NTPs (fluoro-modified transcription; modified bases not specified); prolongs aPTT and PT clotting in human plasma; text does not say whether 2211a (SEQ 16) or 2211b (SEQ 17) was used; indirect evidence of binding; protein in an extract; dose not given here"}, "[2]": {"system": "thrombin (coagulation factor II, in plasma) (Mus musculus)", "assay": "inhibition of the protein", "details": "2'-F modified NTPs (fluoro-modified transcription; modified bases not specified); prolongs aPTT and PT clotting in murine plasma, increases blood loss in mouse liver laceration at 1 and 3 mg/kg; 2211a or 2211b not specified; protein in an extract; protein details: endogenous in murine plasma"}}, "note": "Construct, isoform or probe ends are uncertain for at least one entry."}
{"sequence": "GGGAGAUCGAGCGACUUCCGACUCUGGCGGUCGAUCACACAGUUCAAACGUAAUAAGCCAAUGUACGAGGCAGACGACUCGCCAGAGUCGGGAGUCGGGCUAGUCAUCAGGCACGGGAACAAAGCUGAAGUACUUACCCGUGCCUGAUGAUUAGCCGCUGGUGAAGCCUCCACGCCAGCCUCGGUCUCCCGAUCUAGGAUCGGACUGAAGGAGGCACGGUCCCAGCCGAAGUGUCUUGCGGGAACAAAGCUGAAGUACUUACCCGCAAGGCACUUUGGCUGCUAGACUGGCUGGCGGCGGUCGAUCACACAGUUCAAACGUAAUAAGCCAAUGUACGAGGCAGACGACUCGCCGCCAGCUAGUUUAGGAUUCUAGAUC", "values": [{"measurement": "functional effect of the aptamer", "setting": "[1]", "result": "active"}, {"measurement": "functional effect of the aptamer", "setting": "[2]", "result": "active"}]}
